Nine compounds from the supplement of paper PMC11637464 can be followed below.

In experiment [1] the test system is primary mouse Muller glia with Ascl1 overexpression. Put plainly: progenitor-like (ProL) cell count fold change vs Ascl1-only control (log2 fold change); higher = more progenitor-like cells.
Experiment [2] has the same test system. Put plainly: Neuronal cell count fold change vs Ascl1-only control (log2 fold change); higher = more neurogenesis.

Molecules are shown by their SMILES. Where a name gives a salt, the structure may show the parent alone. The list shows a part of the results. Most values come without repeats; read them as rough.

Regarding `CCN(CC)S(=O)(=O)Nc1cccc(-c2ccc3c(NC(=O)C4CC4)n[nH]c3c2)c1` (collection day: 2), the “progenitor-like (log2)” value in experiment [1] (10 µM) was determined as 0.0931.

Turning to `C[S+]([O-])c1ccc(-c2nc(-c3ccc(F)cc3)c(-c3ccncc3)[nH]2)cc1` (configuration not stated) (collection day: 1), the “Neuronal cell count fold change” value was 0.0566 in experiment [2] (0.1 µM), -1.18 in experiment [2] (1 µM) and -1.64 in experiment [2] (10 µM).

For the compound `O=C(Nc1cccc2cccnc12)c1ccc(N2C(=O)[C@@H]3[C@H](C2=O)[C@@H]2C=C[C@H]3C2)cc1` [endo-IWR 1] (collection day: 2), in experiment [2] (10 µM), the “Neuronal cell count fold change” value was -0.379. Moreover, the “progenitor-like (log2)” value in experiment [1] (10 µM) is 0.391.

With `CCc1ccc(CCOc2ccc(CC3SC(=O)NC3=O)cc2)nc1` (configuration not stated) [Pioglitazone hydrochloride] (collection day: 2), the “progenitor-like (log2)” value is -0.0995 in experiment [1] (0.1 µM), 0 in experiment [1] (1 µM) and 0.508 in experiment [1] (10 µM).

Regarding `COc1cccc(Oc2cccc3nc(Nc4ccc(C(C)C)cc4)nc(N)c23)c1` (collection day: 2), the “Neuronal cell count fold change” value was -0.115 in experiment [2] (0.1 µM) and 0.206 in experiment [2] (1 µM).

Consider `CCCC(CCC)C(=O)O` [Valproic acid, sodium salt] (collection day: 1), for which the entries for the “Neuronal cell count fold change” value in experiment [2] (0.1 µM), in experiment [2] (1 µM) and in experiment [2] (10 µM) were -0.556, -0.474 and -0.396, respectively.

Take `CC(C)N(CCCNC(=O)Nc1ccc(C(C)(C)C)cc1)C[C@H]1O[C@@H](n2ccc3c(N)ncnc32)[C@H](O)[C@@H]1O` (collection day: 2): the “Neuronal cell count fold change” value in experiment [2] (1 µM) turned out to be 0.3; in experiment [2] (10 µM), 0.692. Besides, the “progenitor-like (log2)” value in experiment [1] (1 µM) is -0.684; in experiment [1] (10 µM), -0.0656.

On to `O=C(O)c1ccc2cc(-c3ccc(O)c(C45CC6CC(CC(C6)C4)C5)c3)ccc2c1` (collection day: 1), for which, in experiment [2] (0.1 µM), the “Neuronal cell count fold change” value is -0.252. Moreover, the “progenitor-like (log2)” value in experiment [1] (0.1 µM) turned out to be 0.495.

With `CC1(C)CCC(C)(C)c2cc(C(=O)Nc3ccc(C(=O)O)cc3)ccc21` (collection day: 1), the “progenitor-like (log2)” value in experiment [1] (0.1 µM) is 0.863; in experiment [1] (1 µM), 0.399.
